Reference: US12419871B2, “Biomolecules involved in Alzheimer's disease” (ELECTROPHORETICS LIMITED, priority 2015, dated 2025)

B1: Q9UBB6 (protein, UniProt Q9UBB6 1-729, looked up)
chain: MSCCDLAAAGQLGKASIMASDCEPALNQAEGRNPTLERYLGALREAKNDSEQFAALLLVTKAVKAGDIDAKTRRRIFDAVGFTFPNRLLTTKEAPDGCPDHVLRALGVALLACFCSDPELAAHPQVLNKIPILSTFLTARGDPDDAARRSMIDDTYQCLTAVAGTPRGPRHLIAGGTVSALCQAYLGHGYGFDQALALLVGLLAAAETQCWKEAEPDLLAVLRGLSEDFQKAEDASKFELCQLLPLFLPPTTVPPECYRDLQAGLARILGSKLSSWQRNPALKLAARLAHACGSDWIPAGSSGSKFLALLVNLACVEVRLALEETGTEVKEDVVTACYALMELGIQECTRCEQSLLKEPQKVQLVSVMKEAIGAVIHYLLQVGSEKQKEPFVFASVRILGAWLAEETSSLRKEVCQLLPFLVRYAKTLYEEAEEANDLSQQVANLAISPTTPGPTWPGDALRLLLPGWCHLTVEDGPREILIKEGAPSLLCKYFLQQWELTSPGHDTSVLPDSVEIGLQTCCHIFLNLVVTAPGLIKRDACFTSLMNTLMTSLPALVQQQGRLLLAANVATLGLLMARLLSTSPALQGTPASRGFFAAAILFLSQSHVARATPGSDQAVLALSPEYEGIWADLQELWFLGMQAFTGCVPLLPWLAPAALRSRWPQELLQLLGSVSPNSVKPEMVAAYQGVLVELARANRLCREAMRLQAGEETASHYRMAALEQCLSEP
modifications: full-length
B2: Q86U38 (protein, UniProt Q86U38 1-636, looked up)
chain: MGQGPRSPHKVGRRFPAGGKRGRGAKGSGRPLPGRKRQPWPPPDGRSEPAPDSHPHLSPEALGYFRRALSALKEAPETGEERDLMVHNIMKEVETQALALSTNRTGSEMLQELLGFSPLKPLCRVWAALRSNLRTVACHRCGVHVLQSALLQLPRLLGSAAEEEEEEEEDGKDGPTETLEELVLGLAAEVCDDFLVYCGDTHGSFVVRTLLQVLGGTILESERARPRGSQSSEAQKTPAQECKPADFEVPETFLNRLQDLSSSFLKDIAVFITDKISSFCLQVALQVLHRKLPQFCAHLCNAVIGYLSTRGSSVDGSPLLLFLRDQTSSRLLEQVLLVLEPPRLQSLFEEHLQGQLQTLAAHPIANFPLQRLLDAVTTPELLSPVFEELSPVLEAVLAQGHPGVVIALVGACRRVGAYQAKVLQLLLEAFHCAEPSSRQVACVPLFATLMAYEVYYGLTEEEGAVPAEHQVAMAAARALGDVTVLGSLLLQHLLHFSTPGLVLRSLGALTGPQLLSLAQSPAGSHVLDAILTSPSVTRKLRRRVLQNLKGQYVALACSRHGSRVLDAIWSGAALRARKEIAAELGEQNQELIRDPFGHHVARNVALTTFLKRREAWEQQQGAVAKRRRALNSILED
modifications: full-length
B3: Q8NFZ4 (protein, UniProt Q8NFZ4 1-835, looked up)
chain: MWLLALCLVGLAGAQRGGGGPGGGAPGGPGLGLGSLGEERFPVVNTAYGRVRGVRRELNNEILGPVVQFLGVPYATPPLGARRFQPPEAPASWPGVRNATTLPPACPQNLHGALPAIMLPVWFTDNLEAAATYVQNQSEDCLYLNLYVPTEDGPLTKKRDEATLNPPDTDIRDPGKKPVMLFLHGGSYMEGTGNMFDGSVLAAYGNVIVATLNYRLGVLGFLSTGDQAAKGNYGLLDQIQALRWLSENIAHFGGDPERITIFGSGAGASCVNLLILSHHSEGLFQKAIAQSGTAISSWSVNYQPLKYTRLLAAKVGCDREDSAEAVECLRRKPSRELVDQDVQPARYHIAFGPVVDGDVVPDDPEILMQQGEFLNYDMLIGVNQGEGLKFVEDSAESEDGVSASAFDFTVSNFVDNLYGYPEGKDVLRETIKFMYTDWADRDNGEMRRKTLLALFTDHQWVAPAVATAKLHADYQSPVYFYTFYHHCQAEGRPEWADAAHGDELPYVFGVPMVGATDLFPCNFSKNDVMLSAVVMTYWTNFAKTGDPNQPVPQDTKFIHTKPNRFEEVVWSKFNSKEKQYLHIGLKPRVRDNYRANKVAFWLELVPHLHNLHTELFTTTTRLPPYATRWPPRPPAGAPGTRRPPPPATLPPEPEPEPGPRAYDRFPGDSRDYSTELSVTVAVGASLLFLNILAFAALYYKRDRRQELRCRRLSPPGGSGSGVPGGGPLLPAAGRELPPEEELVSLQLKRGGGVGADPAEALRPACPPDYTLALRRAPDDVPLLAPGALTLLPSGLGPPPPPPPPSLHPFGPFPPPPPTATSHNNTLPHPHSTTRV
modifications: full-length
B4: Q02818 (protein, UniProt Q02818 1-461, looked up)
chain: MPPSGPRGTLLLLPLLLLLLLRAVLAVPLERGAPNKEETPATESPDTGLYYHRYLQEVIDVLETDGHFREKLQAANAEDIKSGKLSRELDFVSHHVRTKLDELKRQEVSRLRMLLKAKMDAEQDPNVQVDHLNLLKQFEHLDPQNQHTFEARDLELLIQTATRDLAQYDAAHHEEFKRYEMLKEHERRRYLESLGEEQRKEAERKLEEQQRRHREHPKVNVPGSQAQLKEVWEELDGLDPNRFNPKTFFILHDINSDGVLDEQELEALFTKELEKVYDPKNEEDDMREMEEERLRMREHVMKNVDTNQDRLVTLEEFLASTQRKEFGDTGEGWETVEMHPAYTEEELRRFEEELAAREAELNAKAQRLSQETEALGRSQGRLEAQKRELQQAVLHMEQRKQQQQQQQGHKAPAAHPEGQLKFHPDTDDVPVPAPAGDQKEVDTSEKKLLERLPEVEVPQHL
modifications: full-length
B5: P47972 (protein, UniProt P47972 1-431, looked up)
chain: MLALLAASVALAVAAGAQDSPAPGSRFVCTALPPEAVHAGCPLPAMPMQGGAQSPEEELRAAVLQLRETVVQQKETLGAQREAIRELTGKLARCEGLAGGKARGAGATGKDTMGDLPRDPGHVVEQLSRSLQTLKDRLESLEHQLRANVSNAGLPGDFREVLQQRLGELERQLLRKVAELEDEKSLLHNETSAHRQKTESTLNALLQRVTELERGNSAFKSPDAFKVSLPLRTNYLYGKIKKTLPELYAFTICLWLRSSASPGIGTPFSYAVPGQANEIVLIEWGNNPIELLINDKVAQLPLFVSDGKWHHICVTWTTRDGMWEAFQDGEKLGTGENLAPWHPIKPGGVLILGQEQDTVGGRFDATQAFVGELSQFNIWDRVLRAQEIVNIANCSTNMPGNIIPWVDNNVDVFGGASKWPVETCEERLLDL
modifications: full-length
B6: P16519 (protein, UniProt P16519 1-638, looked up)
chain: MKGGCVSQWKAAAGFLFCVMVFASAERPVFTNHFLVELHKGGEDKARQVAAEHGFGVRKLPFAEGLYHFYHNGLAKAKRRRSLHHKQQLERDPRVKMALQQEGFDRKKRGYRDINEIDINMNDPLFTKQWYLINTGQADGTPGLDLNVAEAWELGYTGKGVTIGIMDDGIDYLHPDLASNYNAEASYDFSSNDPYPYPRYTDDWFNSHGTRCAGEVSAAANNNICGVGVAYNSKVAGIRMLDQPFMTDIIEASSISHMPQLIDIYSASWGPTDNGKTVDGPRELTLQAMADGVNKGRGGKGSIYVWASGDGGSYDDCNCDGYASSMWTISINSAINDGRTALYDESCSSTLASTFSNGRKRNPEAGVATTDLYGNCTLRHSGTSAAAPEAAGVFALALEANLGLTWRDMQHLTVLTSKRNQLHDEVHQWRRNGVGLEFNHLFGYGVLDAGAMVKMAKDWKTVPERFHCVGGSVQDPEKIPSTGKLVLTLTTDACEGKENFVRYLEHVQAVITVNATRRGDLNINMTSPMGTKSILLSRRPRDDDSKVGFDKWPFMTTHTWGEDARGTWTLELGFVGSAPQKGVLKEWTLMLHGTQSAPYIDQVVRDYQSKLAMSKKEELEEELDEAVERSLKSILNKN
modifications: full-length
B7: P23515 (protein, UniProt P23515 1-440, looked up)
chain: MEYQILKMSLCLFILLFLTPGILCICPLQCICTERHRHVDCSGRNLSTLPSGLQENIIHLNLSYNHFTDLHNQLTQYTNLRTLDISNNRLESLPAHLPRSLWNMSAANNNIKLLDKSDTAYQWNLKYLDVSKNMLEKVVLIKNTLRSLEVLNLSSNKLWTVPTNMPSKLHIVDLSNNSLTQILPGTLINLTNLTHLYLHNNKFTFIPDQSFDQLFQLQEITLYNNRWSCDHKQNITYLLKWMMETKAHVIGTPCSTQISSLKEHNMYPTPSGFTSSLFTVSGMQTVDTINSLSVVTQPKVTKIPKQYRTKETTFGATLSKDTTFTSTDKAFVPYPEDTSTETINSHEAAAATLTIHLQDGMVTNTSLTSSTKSSPTPMTLSITSGMPNNFSEMPQQSTTLNLWREETTTNVKTPLPSVANAWKVNASFLLLLNVVVMLAV
modifications: full-length
B8: O15240 (protein, UniProt O15240 1-615, looked up)
chain: MKALRLSASALFCLLLINGLGAAPPGRPEAQPPPLSSEHKEPVAGDAVPGPKDGSAPEVRGARNSEPQDEGELFQGVDPRALAAVLLQALDRPASPPAPSGSQQGPEEEAAEALLTETVRSQTHSLPAPESPEPAAPPRPQTPENGPEASDPSEELEALASLLQELRDFSPSSAKRQQETAAAETETRTHTLTRVNLESPGPERVWRASWGEFQARVPERAPLPPPAPSQFQARMPDSGPLPETHKFGEGVSSPKTHLGEALAPLSKAYQGVAAPFPKARRPESALLGGSEAGERLLQQGLAQVEAGRRQAEATRQAAAQEERLADLASDLLLQYLLQGGARQRGLGGRGLQEAAEERESAREEEEAEQERRGGEERVGEEDEEAAEAEAEAEEAERARQNALLFAEEEDGEAGAEDKRSQEETPGHRRKEAEGTEEGGEEEDDEEMDPQTIDSLIELSTKLHLPADDVVSIIEEVEEKRKRKKNAPPEPVPPPRAAPAPTHVRSPQPPPPAPAPARDELPDWNEVLPPWDREEDEVYPPGPYHPFPNYIRPRTLQPPSALRRRHYHHALPPSRHYPGREAQARRAQEEAEAEERRLQEQEELENYIEHVLLRRP
modifications: full-length
B9: O95502 (protein, UniProt O95502 1-500, looked up)
chain: MKFLAVLLAAGMLAFLGAVICIIASVPLAASPARALPGGADNASVASGAAASPGPQRSLSALHGAGGSAGPPALPGAPAASAHPLPPGPLFSRFLCTPLAAACPSGAQQGDAAGAAPGEREELLLLQSTAEQLRQTALQQEARIRADQDTIRELTGKLGRCESGLPRGLQGAGPRRDTMADGPWDSPALILELEDAVRALRDRIDRLEQELPARVNLSAAPAPVSAVPTGLHSKMDQLEGQLLAQVLALEKERVALSHSSRRQRQEVEKELDVLQGRVAELEHGSSAYSPPDAFKISIPIRNNYMYARVRKALPELYAFTACMWLRSRSSGTGQGTPFSYSVPGQANEIVLLEAGHEPMELLINDKVAQLPLSLKDNGWHHICIAWTTRDGLWSAYQDGELQGSGENLAAWHPIKPHGILILGQEQDTLGGRFDATQAFVGDIAQFNLWDHALTPAQVLGIANCTAPLLGNVLPWEDKLVEAFGGATKAAFDVCKGRAKA
modifications: full-length

Test: TMTcalibrator quantification of regulated proteins in AD CSF versus control
Design: species or system human
Conditions: CSF of AD patient versus control; non-modified peptides of each protein summed for three control and three AD cases

**Q.** Which “Log2 AD/Control” value does the source give for B1 here?
**A.** 0.80

**Q.** For B2, which “Log2 AD/Control” value is on record?
**A.** 0.86

**Q.** Which “Log2 AD/Control” value does the source give for B3 here?
**A.** 0.96

**Q.** With B4 as the molecule, how does the “Log2 AD/Control” value read?
**A.** 0.87

**Q.** For B5, which “Log2 AD/Control” value is on record?
**A.** 1.02

**Q.** For B6, which “Log2 AD/Control” value is on record?
**A.** 1.52

**Q.** For B7, which “Log2 AD/Control” value is on record?
**A.** 0.80

**Q.** With B8 as the molecule, how does the “Log2 AD/Control” value read?
**A.** 1.12

**Q.** Which “Log2 AD/Control” value does the source give for B9 here?
**A.** 1.09
